No constants are given. Whether binding was seen depends on the method and setting. Some binding calls cover weakened binding; strength is not graded here.
Molecular target: SKI3 (subunit of the SKI238 complexes) (human) (UniProt Q6PGP7)
Assay: co-purification (nickel affinity and ion exchange); SKI2, 10xHis-SKI3 and SKI8 co-expressed from one plasmid in Hi5 insect cells; complex purified through the His tag on SKI3

- binding: binds
Substance: SKI2 helicase (subunit of the wild-type SKI238 complex) (from UniProt Q15477 1-1246) (enzyme)
